# In all, about 320,000 compounds went through this assay and about 22,000 (6.9%) were called active. The inconclusive results got no clear call from the source; some entries with a clear call stand among them for comparison. The call rests on the fitted dose curve; in most records, active means well fitted inhibition curve with a large enough effect; inconclusive means small, poorly fitted or top-dose-only effect, or another doubt; inactive means no such curve, though single readings can be large or run the other way. Potencies beside an inconclusive call are fits to weak or partial responses and may not hold up.
# Experiment: Primary qHTS for delayed death inhibitors of the malarial parasite plastid, 96 hour incubation
# Conditions: P. falciparum luciferase reporter growth; series mostly up to 28.7 µM
# Summary of the method: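 P. falciparum expressing integrated firefly luciferase, in erythrocytes at 2% hematocrit, 0.05% parasitemia, incubated with compounds 96 h at 37 C, 5% CO2. Growth inhibition read as loss of luminescence; two-generation exposure targets delayed-death apicoplast inhibitors.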
# On the % scale 0 is the no-effect control and ±100 the full control effect; potency means the concentration at half of the fitted maximal effect.
Compound,Potency,"activity change, negative = inhibition"
COCCN(C(=O)Cc1cccs1)C(C(=O)NCc1ccc(OC)cc1)c1ccc(OC)cc1 (stereo not drawn),"inconclusive: 6.57 µM [inhibitor, partial curve, poor fit]",–
Cc1nnc(SCC(=O)Nc2cc(S(=O)(=O)N3CCCC3)ccc2Cl)n1C1CC1,"inconclusive: 18.5 µM [inhibitor, single point]",–
CCOC(=O)c1[nH]c2ccccc2c1NC(=O)c1ccc(S(=O)(=O)N(C)C)cc1,active: 10.4 µM,–
CCCc1cc(=O)oc2cc(C)cc(OCC(=O)NCCCN3CCOCC3)c12,"inconclusive: 10.4 µM [inhibitor, single point]",–
COc1cc(C(=S)N2CCOCC2)cc(Br)c1OS(=O)(=O)c1ccccc1,"inconclusive: 16.5 µM [inhibitor, single point]",–
CC(=O)Nc1cc[n+](C(C)C(=O)c2ccc(Cl)cc2)cc1 (stereo not drawn),inactive,–
COc1cc(OC)cc(C(=O)NC(C(=O)OCn2nnc3ccccc3c2=O)C(C)C)c1 (stereo not drawn),"inconclusive: 13.1 µM [inhibitor, single point]",–
O=S(=O)(c1ccc2c(c1)OCCO2)N1CCN(c2nc3ccccc3s2)CC1,inactive,–
CCOC(=O)c1c(S(=O)(=O)N2CCCCC2C)c(C)n(C)c1C (stereo not drawn),active: 1.65 µM,–
CSc1ccc(N2CCN(CCCNC(=O)Nc3ccccc3F)CC2)cc1,"inconclusive: 7.38 µM [inhibitor, partial curve, poor fit]",–
COc1ccccc1CNC1CCCc2ccccc21 (stereo not drawn),"inconclusive: 4.15 µM [inhibitor, single point]",–
CC(=O)O/N=C/c1c(N2CCOCC2)n(C)c2ccccc12,active: 3.7 µM,–
Oc1ccccc1/C=N/NC(=S)NC1CC2CC1C1C=CCC21 (stereo not drawn),active: 1.85 µM,–
O=C(Nc1nc(-c2ccccc2)nc2ccccc12)c1ccc(F)cc1,inactive,–
CCCC(=O)Nc1nnc(SCC(=O)NCc2ccco2)s1,"inconclusive: 3.29 µM [inhibitor, single point]",–
Cc1cccc(N2CCN(C(=O)CCc3nc4ccccc4[nH]3)CC2C)c1 (stereo not drawn),"inconclusive: 18.5 µM [inhibitor, single point]",–
CC(O)CNCCCOc1ccc(Cl)cc1C(C)(C)C (stereo not drawn),–,inactive: 64% [at 5.75 µM]
N#CC1=C(N)Oc2cc(O)ccc2C1c1cccnc1 (stereo not drawn),inactive,–
COc1cccc2c(=O)n(CC(=O)N3CCCCCC3)ccc12,inactive,–
O=C(c1ccc(Cl)nc1)N1CCC(Cc2ccccc2)CC1,"inconclusive: 18.5 µM [inhibitor, single point]",–
O=C(/C=N/O)Nc1cccnc1,"inconclusive: 18.5 µM [inhibitor, single point]",–
Cc1c(NS(=O)(=O)c2cc(C(=O)NCc3cccnc3)cc(Cl)c2Cl)c(=O)n(-c2ccccc2)n1C,"inconclusive: 18.5 µM [inhibitor, single point]",–
CCNC(=O)COn1c(SCC(=O)NCC)nc2ccccc2c1=O,inactive,–
Cc1ccc(C)c(OCCn2c(=O)c3c(ncn3C3CCCC3)n(Cc3ccccc3)c2=O)c1,active: 2.62 µM,–
COc1cccc(C(=O)N2CCN(C(=O)COc3ccc4ccccc4c3)CC2)c1,inactive,–

Compound,Potency,"activity change, negative = inhibition"
COc1ccccc1NS(=O)(=O)c1cccc(C(=O)N/N=C/c2cn(-c3ccccc3)nc2-c2ccccc2)c1,active: 2.94 µM,–
CCOc1ccccc1NC(=O)C1CC2CCCC(C1)C2=O (stereo not drawn),"inconclusive: 0.415 µM [inhibitor, partial curve]",–
COc1ccc(C(=O)Nc2cccc(NC(C)=O)c2)cc1OC,"inconclusive: 13.1 µM [inhibitor, single point]",–
COc1cc(C(=O)Nc2ccccc2N2CCCCC2)cc(OC)c1OC,"inconclusive: 8.28 µM [inhibitor, partial curve, poor fit]",–
Cc1nc2ccc3nc(NC(=O)C4COc5ccccc5O4)sc3c2s1 (stereo not drawn),"inconclusive: 11.7 µM [inhibitor, single point]",–
CC(C)NC(=O)C1CCN(S(=O)(=O)c2ccc(N3CCCC3=O)cc2)CC1,"inconclusive: 9.28 µM [inhibitor, single point]",–
CCC(C)(C)c1ccc(OCCCC[n+]2cccc(C)c2)c(C(C)(C)CC)c1,"inconclusive: 0.262 µM [inhibitor, full curve, poor fit]",–
O=C1CCc2cc(S(=O)(=O)Nc3cccc(F)c3)cc3c2N1CC3,inactive,–
COc1cc(/C=N/NC(=O)c2cc(-c3cccn3C)n[nH]2)cc(OC)c1OC,inactive,–
CCC(=O)C1CCCN(C(=O)CCc2nnc(-c3ccc(C(C)=O)s3)o2)C1 (stereo not drawn),inactive,–
CCC(C)(NC(=O)c1ccccn1)C(=O)NC1CCCC1 (stereo not drawn),"inconclusive: 10.4 µM [inhibitor, single point]",–
CCCCOc1ccc(-c2ncc(C(=O)OCC)c(N)n2)cc1,"inconclusive: 9.28 µM [inhibitor, partial curve]",–
Cc1ccccc1C1c2[nH]c3ccccc3c2CCN1C(=O)c1ccc(=O)n(C)n1 (stereo not drawn),active: 13.1 µM,–
C=C(C)COc1ccc(-c2ncnc(C(F)(F)F)c2-c2ccccc2)c(O)c1,active: 1.65 µM,–
COc1ccccc1N1CCN(C2CCCN(Cc3ccccc3OCCO)C2)CC1 (stereo not drawn),active: 1.65 µM,–
COc1cccc(N2CCN(c3cnc4ccccc4n3)CC2)c1,inactive,–
CC1=C(C(=O)OC(C)(C)C)C(c2ccco2)C(C#N)=C(N)O1 (stereo not drawn),active: 2.08 µM,–
O=C(Nc1nnc(C2CC2)s1)c1cccc(S(=O)(=O)N2CC(c3ccccc3)CC2=O)c1 (stereo not drawn),"inconclusive: 5.22 µM [inhibitor, partial curve, poor fit]",–
CCCCCCCC(=O)N/N=C/c1ccc([N+](=O)[O-])o1,"inconclusive: 4.15 µM [inhibitor, partial curve, poor fit]",–
Cc1ccc2cc(CCNC(=O)c3ccc4c(c3)OCO4)c(=O)[nH]c2c1,"inconclusive: 18.5 µM [inhibitor, single point]",–
CC1(C)OC(=O)N(c2cccnc2)C1(C)O (stereo not drawn),"inconclusive: 18.5 µM [inhibitor, partial curve, poor fit]",–
CCCCCC(=O)Nc1nc(C)c(-c2csc(Nc3ccc(Cl)cc3)n2)s1,"inconclusive: 3.29 µM [inhibitor, full curve]",–
CCOc1ccc2nc(NC(=O)CSc3nc4ccccc4c(=O)n3Cc3ccco3)sc2c1,active: 1.31 µM,–
O=C(/C=C/c1ccc([N+](=O)[O-])s1)N1CCCCC1,"inconclusive: 0.0928 µM [inhibitor, full curve, poor fit]",–
O=S(=O)(Cc1ccc(Cl)cc1)NCC1CCCO1 (stereo not drawn),"inconclusive: 18.5 µM [inhibitor, single point]",–

Compound,Potency,"activity change, negative = inhibition"
CN(C)N1C(=O)CC(N2CCCC2)C1=O (stereo not drawn),"inconclusive: 14.7 µM [inhibitor, partial curve, poor fit]",–
COc1ccc(-c2cc(=O)oc3c(C)c(OC(C)C(=O)Nc4ccc(CN5CCOCC5)cc4)ccc23)cc1 (stereo not drawn),active: 3.7 µM,–
Cc1c(C)c2ccc(OC(C)C(=O)N3CC[C@@]4(O)CCCC[C@H]4C3)cc2oc1=O (stereo partly drawn),active: 9.28 µM,–
O=C(NCCNC(=O)c1ccccn1)c1ccc(-c2ccccc2)cc1,inactive,–
Cc1ccc(NC(=O)CN(C)C(=O)C(Sc2ccccc2)c2ccccc2)cc1 (stereo not drawn),"inconclusive: 13.1 µM [inhibitor, single point]",–
Clc1ccc(/C=C/c2ncc[nH]2)c(Cl)c1,"inconclusive: 18.5 µM [inhibitor, single point]",–
CCOc1cccc(Nc2cc3n(c(=O)n2)CCc2cc(OC)c(OC)cc2-3)c1,active: 3.7 µM,–
COc1ccc(CC(=O)NNC(=O)c2ccco2)cc1,inactive,–
Cc1ccc(S(=O)(=O)NCCNc2ccccc2[N+](=O)[O-])cc1,"inconclusive: 11.7 µM [inhibitor, single point]",–
COc1cc(C2C(C#N)=C(N)Oc3cc4c(cc32)OCO4)cc(OC)c1OC (stereo not drawn),"inconclusive: 13.1 µM [inhibitor, partial curve]",–
Cc1cccc(NC(=O)CSc2nccn2Cc2ccco2)c1,inactive,–
COc1ccc(CN(C)C(=O)CNC(=O)c2ccc(C)cc2)cc1,"inconclusive: 20.8 µM [inhibitor, single point]",–
CCOC(=O)N1CCC(Nc2c(-c3ccccc3)c(=O)c2=O)CC1,"inconclusive: 18.5 µM [inhibitor, single point]",–
C=CCSc1nnc2c(n1)OC(c1cccnc1)N(C(C)=O)c1ccccc1-2 (stereo not drawn),"inconclusive: 5.22 µM [inhibitor, partial curve]",–
NS(=O)(=O)c1ccc(CCNC(=O)CSc2nc3ccccc3c(=O)n2CCC(=O)N2CCCCC2)cc1,inactive,–
CCCn1c(=O)c(C(=O)NNC(=O)c2ccccc2Cl)c(O)c2ccccc21,inactive,–
COCCOC(=O)c1c(N)n(CCCN2CCOCC2)c2nc3ccccc3nc12,inactive,–
O=C1c2ccc([N+](=O)[O-])cc2S(=O)(=O)N1Cc1ccccc1,inactive,–
Cc1cccc(C(C(N)=O)c2ncc(C(F)(F)F)cc2Cl)c1 (stereo not drawn),inactive,–
COc1cc(C2CC(=O)Nc3n[nH]c(-c4ccccc4)c32)cc(OC)c1OC (stereo not drawn),"inconclusive: 11.7 µM [inhibitor, single point]",–
O=C(NNC(=O)C1CCN(c2ncccn2)CC1)c1ccccc1,"inconclusive: 11.7 µM [inhibitor, single point]",–
CCCCC(CC)COP(=O)(OCC(CC)CCCC)OCC(CC)CCCC (stereo not drawn),"inconclusive: 1.04 µM [inhibitor, partial curve, poor fit]",–
O=C(NCC1CCCO1)c1ccccc1-c1nc(-c2ccccc2F)no1 (stereo not drawn),inactive,–

# At a glance, part of the list above.
Compound,Potency,"activity change, negative = inhibition"
COc1ccc(C(=O)Nc2cccc(NC(C)=O)c2)cc1OC,"inconclusive: 13.1 µM [inhibitor, single point]",–
COc1cc(C(=O)Nc2ccccc2N2CCCCC2)cc(OC)c1OC,"inconclusive: 8.28 µM [inhibitor, partial curve, poor fit]",–
Cc1nc2ccc3nc(NC(=O)C4COc5ccccc5O4)sc3c2s1 (stereo not drawn),"inconclusive: 11.7 µM [inhibitor, single point]",–
CC(C)NC(=O)C1CCN(S(=O)(=O)c2ccc(N3CCCC3=O)cc2)CC1,"inconclusive: 9.28 µM [inhibitor, single point]",–
CCC(C)(C)c1ccc(OCCCC[n+]2cccc(C)c2)c(C(C)(C)CC)c1,"inconclusive: 0.262 µM [inhibitor, full curve, poor fit]",–

# — PubChem BioAssay AID504834 (National Center for Advancing Translational Sciences (NCATS), 2011)
